From publication doi:10.1101/2022.04.11.487887 (bioRxiv, 2022)
No constants are given. Whether binding was seen depends on the method and setting. In cells and extracts the contact can be indirect. These calls come from enrichment with a bait or labelling near it, and not all partners need be listed. Where a sequence is shown, tags or fusion partners need not be part of it.

Amino acid sequences for entries named in this document (tags omitted).
UniProt P35567: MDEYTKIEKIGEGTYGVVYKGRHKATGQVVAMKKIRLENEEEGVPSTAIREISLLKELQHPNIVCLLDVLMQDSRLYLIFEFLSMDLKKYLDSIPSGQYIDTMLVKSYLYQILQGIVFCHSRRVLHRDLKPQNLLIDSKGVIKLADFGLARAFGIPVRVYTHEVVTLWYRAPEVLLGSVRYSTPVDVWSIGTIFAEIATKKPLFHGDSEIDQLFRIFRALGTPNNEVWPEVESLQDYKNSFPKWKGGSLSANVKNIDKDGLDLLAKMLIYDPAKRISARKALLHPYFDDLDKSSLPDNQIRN
UniProt P24033: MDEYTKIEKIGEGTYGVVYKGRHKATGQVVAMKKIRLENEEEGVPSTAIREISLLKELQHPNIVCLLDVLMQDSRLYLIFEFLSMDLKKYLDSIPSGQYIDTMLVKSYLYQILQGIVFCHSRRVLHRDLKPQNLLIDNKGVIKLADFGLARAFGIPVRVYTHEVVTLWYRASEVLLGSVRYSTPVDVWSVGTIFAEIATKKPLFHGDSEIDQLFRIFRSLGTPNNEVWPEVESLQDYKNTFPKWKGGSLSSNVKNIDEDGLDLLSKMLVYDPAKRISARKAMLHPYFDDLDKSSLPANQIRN
UniProt Q9DG02: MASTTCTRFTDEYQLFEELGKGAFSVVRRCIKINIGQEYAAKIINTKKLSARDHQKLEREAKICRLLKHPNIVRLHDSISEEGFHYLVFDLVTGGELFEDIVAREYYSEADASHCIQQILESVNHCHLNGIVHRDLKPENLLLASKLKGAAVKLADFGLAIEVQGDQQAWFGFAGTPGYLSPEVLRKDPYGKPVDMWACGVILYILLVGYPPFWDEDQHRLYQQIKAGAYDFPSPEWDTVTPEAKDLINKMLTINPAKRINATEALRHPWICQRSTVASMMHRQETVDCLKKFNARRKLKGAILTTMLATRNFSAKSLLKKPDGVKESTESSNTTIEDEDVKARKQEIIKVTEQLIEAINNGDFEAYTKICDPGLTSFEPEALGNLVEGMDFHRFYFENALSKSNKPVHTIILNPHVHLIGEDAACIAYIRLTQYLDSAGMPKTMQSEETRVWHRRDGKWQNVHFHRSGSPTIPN

Columns and labels:
[1] = biological target: T1, Strep-His-TEV-HaloTag-3C-human γTuNA (human); assay: affinity purification with mass spectrometry
T1 sequence: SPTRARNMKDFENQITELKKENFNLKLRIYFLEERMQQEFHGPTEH

[2] = biological target: T2, Strep-His-TEV-HaloTag-3C-Xenopus γTuNA (Xenopus laevis); assay: affinity purification with mass spectrometry
T2 sequence: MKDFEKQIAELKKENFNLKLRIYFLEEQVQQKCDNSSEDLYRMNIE

In the case of “cyclin-dependent kinase 1 (CDK1) subunit A (from UniProt P35567 1-302)”, the binding [1] is reported as “binds” and the binding [2] is reported as “binds”.
For “cyclin-dependent kinase 1 (CDK1) subunit B (from UniProt P24033 1-302)”, the binding [1] was “binds” and the binding [2] was “binds”.
For “type II delta chain of the calmodulin-dependent protein kinase (CAMK2D) (from UniProt Q9DG02 1-475)”, the binding [1] was “binds” and the binding [2] was “binds”.
For nucleoside diphosphate kinase 7 (NME7), the binding [1] was “binds” and the binding [2] was “binds”.
